Test results taken from the supplement of paper PMC12067093, “Discovery and optimisation of a covalent ligand for TRIM25 and its application to targeted protein ubiquitination” (Chemical Science, 2025).
Some of the results follow.

The chains behind the UniProt entries cited, without tags or fusion partners. Where a name states a change or a piece, a line headed by the entry shows the natural chain unless it says otherwise.
UniProt Q6P2P2: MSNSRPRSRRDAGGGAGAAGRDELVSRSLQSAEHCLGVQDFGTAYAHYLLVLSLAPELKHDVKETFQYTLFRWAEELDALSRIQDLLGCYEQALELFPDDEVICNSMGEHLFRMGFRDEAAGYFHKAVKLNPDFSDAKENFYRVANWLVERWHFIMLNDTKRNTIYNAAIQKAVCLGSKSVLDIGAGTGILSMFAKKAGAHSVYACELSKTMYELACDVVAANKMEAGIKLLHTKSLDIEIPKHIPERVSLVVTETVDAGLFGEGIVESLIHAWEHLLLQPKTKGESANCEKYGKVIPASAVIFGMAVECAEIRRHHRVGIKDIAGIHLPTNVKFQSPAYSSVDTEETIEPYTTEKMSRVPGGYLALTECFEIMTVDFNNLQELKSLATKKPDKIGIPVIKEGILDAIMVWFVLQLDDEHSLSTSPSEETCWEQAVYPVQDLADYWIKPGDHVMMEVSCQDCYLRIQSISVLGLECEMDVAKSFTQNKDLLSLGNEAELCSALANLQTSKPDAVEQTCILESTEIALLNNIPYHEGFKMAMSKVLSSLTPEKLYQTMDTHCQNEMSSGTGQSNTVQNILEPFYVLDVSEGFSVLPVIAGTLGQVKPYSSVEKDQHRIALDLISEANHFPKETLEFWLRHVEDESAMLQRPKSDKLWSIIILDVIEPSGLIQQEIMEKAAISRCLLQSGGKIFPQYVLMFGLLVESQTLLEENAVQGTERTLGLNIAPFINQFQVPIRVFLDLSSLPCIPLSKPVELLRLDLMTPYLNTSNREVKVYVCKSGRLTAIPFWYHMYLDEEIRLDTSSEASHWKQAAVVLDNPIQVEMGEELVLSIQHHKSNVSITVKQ
UniProt Q05655: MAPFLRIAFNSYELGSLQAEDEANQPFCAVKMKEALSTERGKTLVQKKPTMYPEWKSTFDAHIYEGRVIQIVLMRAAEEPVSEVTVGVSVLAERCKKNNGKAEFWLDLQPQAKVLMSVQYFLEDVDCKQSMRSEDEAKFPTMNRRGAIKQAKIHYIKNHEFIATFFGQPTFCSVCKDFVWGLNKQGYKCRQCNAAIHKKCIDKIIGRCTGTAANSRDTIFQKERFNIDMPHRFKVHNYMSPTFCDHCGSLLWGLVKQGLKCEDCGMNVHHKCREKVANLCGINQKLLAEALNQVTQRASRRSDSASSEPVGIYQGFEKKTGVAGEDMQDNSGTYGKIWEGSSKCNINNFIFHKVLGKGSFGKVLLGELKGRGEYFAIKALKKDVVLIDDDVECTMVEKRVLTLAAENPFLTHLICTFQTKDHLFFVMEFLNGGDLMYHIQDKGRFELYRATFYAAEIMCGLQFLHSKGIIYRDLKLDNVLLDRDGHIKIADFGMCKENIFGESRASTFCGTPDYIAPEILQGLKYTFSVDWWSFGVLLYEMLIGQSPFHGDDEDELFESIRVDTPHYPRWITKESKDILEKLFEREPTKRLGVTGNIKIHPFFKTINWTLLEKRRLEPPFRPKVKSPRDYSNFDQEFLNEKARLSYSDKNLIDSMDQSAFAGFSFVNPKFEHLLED
UniProt P11908: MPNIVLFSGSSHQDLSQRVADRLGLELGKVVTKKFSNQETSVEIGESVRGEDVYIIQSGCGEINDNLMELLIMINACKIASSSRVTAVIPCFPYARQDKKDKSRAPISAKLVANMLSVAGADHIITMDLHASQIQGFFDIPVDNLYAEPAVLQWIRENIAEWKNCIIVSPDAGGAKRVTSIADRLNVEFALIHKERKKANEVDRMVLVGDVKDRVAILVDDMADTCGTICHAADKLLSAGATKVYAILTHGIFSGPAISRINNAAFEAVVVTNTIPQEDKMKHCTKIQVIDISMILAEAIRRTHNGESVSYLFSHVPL
UniProt O60678: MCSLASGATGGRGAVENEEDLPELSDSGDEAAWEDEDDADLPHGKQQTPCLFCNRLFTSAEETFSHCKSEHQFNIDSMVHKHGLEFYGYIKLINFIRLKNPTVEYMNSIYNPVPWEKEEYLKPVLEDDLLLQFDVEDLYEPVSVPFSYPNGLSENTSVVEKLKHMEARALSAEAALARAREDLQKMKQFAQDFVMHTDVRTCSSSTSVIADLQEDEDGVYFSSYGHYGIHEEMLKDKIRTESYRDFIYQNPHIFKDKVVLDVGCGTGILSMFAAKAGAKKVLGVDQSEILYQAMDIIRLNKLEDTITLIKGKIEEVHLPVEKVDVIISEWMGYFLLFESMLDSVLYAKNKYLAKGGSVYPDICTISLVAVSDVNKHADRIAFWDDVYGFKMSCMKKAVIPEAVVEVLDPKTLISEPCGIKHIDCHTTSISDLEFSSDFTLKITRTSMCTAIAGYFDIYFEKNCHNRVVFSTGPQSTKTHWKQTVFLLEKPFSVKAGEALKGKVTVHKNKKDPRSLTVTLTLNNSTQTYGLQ
UniProt O43172: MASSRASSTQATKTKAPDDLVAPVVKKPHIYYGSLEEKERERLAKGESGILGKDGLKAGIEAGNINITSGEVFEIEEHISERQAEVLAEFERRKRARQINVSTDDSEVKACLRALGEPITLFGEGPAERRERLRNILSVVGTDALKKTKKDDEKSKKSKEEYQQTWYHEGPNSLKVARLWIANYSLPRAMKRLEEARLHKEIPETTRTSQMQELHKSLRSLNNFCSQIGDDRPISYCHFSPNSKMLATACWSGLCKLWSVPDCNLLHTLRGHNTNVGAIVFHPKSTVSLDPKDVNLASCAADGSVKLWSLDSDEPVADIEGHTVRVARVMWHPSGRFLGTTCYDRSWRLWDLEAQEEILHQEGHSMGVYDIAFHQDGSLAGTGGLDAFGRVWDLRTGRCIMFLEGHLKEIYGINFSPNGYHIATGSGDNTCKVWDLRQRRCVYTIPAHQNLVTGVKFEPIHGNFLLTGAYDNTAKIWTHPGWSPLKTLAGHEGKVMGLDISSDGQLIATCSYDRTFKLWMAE
UniProt P41743, whole entry, looked up: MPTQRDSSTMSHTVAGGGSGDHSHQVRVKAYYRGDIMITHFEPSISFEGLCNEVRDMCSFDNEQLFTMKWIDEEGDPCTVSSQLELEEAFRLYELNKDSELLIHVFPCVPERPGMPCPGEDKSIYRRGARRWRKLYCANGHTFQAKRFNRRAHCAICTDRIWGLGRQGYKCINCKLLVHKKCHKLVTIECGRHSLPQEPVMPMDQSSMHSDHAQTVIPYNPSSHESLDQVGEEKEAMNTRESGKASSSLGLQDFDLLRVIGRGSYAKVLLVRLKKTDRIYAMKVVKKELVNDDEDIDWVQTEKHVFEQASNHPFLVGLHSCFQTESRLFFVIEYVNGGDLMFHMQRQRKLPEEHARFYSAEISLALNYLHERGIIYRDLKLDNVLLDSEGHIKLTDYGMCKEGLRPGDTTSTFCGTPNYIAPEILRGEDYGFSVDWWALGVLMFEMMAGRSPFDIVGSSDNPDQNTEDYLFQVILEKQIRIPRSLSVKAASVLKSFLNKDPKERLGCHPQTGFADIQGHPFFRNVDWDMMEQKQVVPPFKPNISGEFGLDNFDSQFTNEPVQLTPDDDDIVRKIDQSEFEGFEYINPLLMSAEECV
UniProt P05771, whole entry, looked up: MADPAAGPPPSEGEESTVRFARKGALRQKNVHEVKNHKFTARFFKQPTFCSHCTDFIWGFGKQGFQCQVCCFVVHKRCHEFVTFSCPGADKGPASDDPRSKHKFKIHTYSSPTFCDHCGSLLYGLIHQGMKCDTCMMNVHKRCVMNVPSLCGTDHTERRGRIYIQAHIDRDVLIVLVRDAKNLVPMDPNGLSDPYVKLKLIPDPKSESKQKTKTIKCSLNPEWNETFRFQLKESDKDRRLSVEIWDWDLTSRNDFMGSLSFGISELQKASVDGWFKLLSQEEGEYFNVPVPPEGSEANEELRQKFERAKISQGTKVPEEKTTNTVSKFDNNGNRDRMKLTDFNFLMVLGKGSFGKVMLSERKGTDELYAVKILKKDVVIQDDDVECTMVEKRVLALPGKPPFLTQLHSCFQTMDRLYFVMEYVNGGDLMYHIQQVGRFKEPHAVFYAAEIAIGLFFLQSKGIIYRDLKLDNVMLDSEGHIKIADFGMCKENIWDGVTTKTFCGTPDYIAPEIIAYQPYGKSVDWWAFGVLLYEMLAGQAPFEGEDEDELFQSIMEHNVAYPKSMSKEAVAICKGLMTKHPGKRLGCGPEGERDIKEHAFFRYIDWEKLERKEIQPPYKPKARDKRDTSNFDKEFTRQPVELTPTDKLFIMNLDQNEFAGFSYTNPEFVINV
UniProt Q9NVM4: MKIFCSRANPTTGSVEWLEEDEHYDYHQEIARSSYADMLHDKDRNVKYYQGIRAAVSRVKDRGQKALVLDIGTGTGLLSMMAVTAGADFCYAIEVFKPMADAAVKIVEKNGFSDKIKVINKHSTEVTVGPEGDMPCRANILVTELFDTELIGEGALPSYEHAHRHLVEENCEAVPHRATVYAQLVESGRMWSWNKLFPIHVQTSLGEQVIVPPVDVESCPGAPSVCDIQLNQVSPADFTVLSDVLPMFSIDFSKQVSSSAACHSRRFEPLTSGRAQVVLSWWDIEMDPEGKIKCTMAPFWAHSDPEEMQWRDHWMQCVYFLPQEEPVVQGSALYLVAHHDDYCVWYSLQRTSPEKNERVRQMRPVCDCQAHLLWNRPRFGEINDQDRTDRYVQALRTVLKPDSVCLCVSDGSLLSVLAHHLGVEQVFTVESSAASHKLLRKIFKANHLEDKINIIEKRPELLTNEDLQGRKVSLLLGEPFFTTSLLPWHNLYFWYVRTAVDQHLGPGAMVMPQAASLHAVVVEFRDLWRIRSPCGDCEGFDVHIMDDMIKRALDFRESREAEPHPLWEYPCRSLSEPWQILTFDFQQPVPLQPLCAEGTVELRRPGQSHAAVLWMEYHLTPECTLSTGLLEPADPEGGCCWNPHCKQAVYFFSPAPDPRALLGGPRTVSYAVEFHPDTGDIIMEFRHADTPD
UniProt P24158: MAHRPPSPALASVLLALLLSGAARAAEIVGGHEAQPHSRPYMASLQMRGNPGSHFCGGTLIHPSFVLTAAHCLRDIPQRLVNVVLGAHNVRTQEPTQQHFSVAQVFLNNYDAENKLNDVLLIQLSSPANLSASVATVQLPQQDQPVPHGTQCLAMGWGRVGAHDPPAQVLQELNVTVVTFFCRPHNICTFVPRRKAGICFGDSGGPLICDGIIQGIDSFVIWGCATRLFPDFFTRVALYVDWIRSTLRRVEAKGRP
UniProt Q9Y478: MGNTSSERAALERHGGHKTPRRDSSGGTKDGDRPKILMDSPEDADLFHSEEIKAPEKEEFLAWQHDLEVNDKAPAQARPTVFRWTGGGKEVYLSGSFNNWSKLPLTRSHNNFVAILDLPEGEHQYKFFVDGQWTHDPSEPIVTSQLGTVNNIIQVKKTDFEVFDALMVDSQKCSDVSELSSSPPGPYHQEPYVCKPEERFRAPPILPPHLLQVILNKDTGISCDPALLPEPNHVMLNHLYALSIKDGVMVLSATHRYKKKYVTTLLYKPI
UniProt Q8WWY3: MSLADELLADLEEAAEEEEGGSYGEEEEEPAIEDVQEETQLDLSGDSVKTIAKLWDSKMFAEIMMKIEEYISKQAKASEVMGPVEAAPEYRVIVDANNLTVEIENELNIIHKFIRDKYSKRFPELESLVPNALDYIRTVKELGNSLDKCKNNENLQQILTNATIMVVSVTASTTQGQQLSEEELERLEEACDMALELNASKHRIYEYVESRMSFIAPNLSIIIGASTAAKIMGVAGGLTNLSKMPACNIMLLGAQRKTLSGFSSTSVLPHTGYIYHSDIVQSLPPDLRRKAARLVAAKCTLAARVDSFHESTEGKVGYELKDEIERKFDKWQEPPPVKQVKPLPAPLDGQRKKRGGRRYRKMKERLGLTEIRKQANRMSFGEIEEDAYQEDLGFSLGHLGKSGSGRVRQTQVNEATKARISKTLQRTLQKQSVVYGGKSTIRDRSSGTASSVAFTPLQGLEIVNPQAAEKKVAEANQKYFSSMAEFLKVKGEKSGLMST
UniProt O14744, whole entry, looked up: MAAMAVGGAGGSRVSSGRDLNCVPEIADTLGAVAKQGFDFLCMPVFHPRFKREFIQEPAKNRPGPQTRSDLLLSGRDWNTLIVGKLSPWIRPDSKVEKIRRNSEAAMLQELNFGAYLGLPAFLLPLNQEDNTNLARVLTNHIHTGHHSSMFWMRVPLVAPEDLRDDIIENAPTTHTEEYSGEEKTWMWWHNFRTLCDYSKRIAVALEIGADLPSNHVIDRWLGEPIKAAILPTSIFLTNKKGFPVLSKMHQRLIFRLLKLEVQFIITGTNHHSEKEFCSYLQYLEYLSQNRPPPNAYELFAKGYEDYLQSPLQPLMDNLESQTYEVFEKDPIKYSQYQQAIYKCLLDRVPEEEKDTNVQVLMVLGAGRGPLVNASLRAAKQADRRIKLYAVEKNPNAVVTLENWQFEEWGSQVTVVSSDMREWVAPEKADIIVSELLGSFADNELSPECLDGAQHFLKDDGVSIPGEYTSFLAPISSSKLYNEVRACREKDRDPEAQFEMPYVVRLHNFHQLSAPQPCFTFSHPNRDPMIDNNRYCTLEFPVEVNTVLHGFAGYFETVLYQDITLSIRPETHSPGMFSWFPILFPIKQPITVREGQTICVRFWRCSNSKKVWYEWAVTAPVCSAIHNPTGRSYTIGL

Compound: Cc1cc(ccc1-c1ccccc1)C(=O)N1CCCN(CC1)C(=O)CCl [compound 10]
Assay: probe-labelled cysteine peptide fold change vs DMSO (competition) (log2 fold change); higher = less target engagement (more negative = stronger competition)
Settings: THP-1, incubation time: 4 h
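Note: competitive profiling in live THP-1 cells: cysteine peptides tagged with an iodoacetamide desthiobiotin (IA-DTB) probe, intensity after compound treatment relative to DMSO-treated cells.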

Target	probe-labelled cysteine peptide fold change (10 µM)	probe-labelled cysteine peptide fold change (50 µM)
PRPF3_O43395_651_QCPTENMAR (UniProt O43395)	-0.161	-0.0737
PRMT9_Q6P2P2_747_VFLDLSSLPCIPLSKPVELLR (UniProt Q6P2P2)	-0.236	0.0688
PRMT9_Q6P2P2_683_CLLQSGGK (UniProt Q6P2P2)	0.066	0.0126
PRKCD_Q05655_509_ASTFCGTPDYIAPEILQGLK (UniProt Q05655)	-0.222	0.515
PRKRA_O75569_163_EYTTICR (UniProt O75569)	0.145	-0.169
PRSS12_P56730_349_CTGNELSIEQCPK (UniProt P56730)	-0.104	0.148
PRPS2_P11908_226+230_DRVAILVDDMADTCGTICHAADK (UniProt P11908)	0.366	-0.386
PRPS2_P11908_226+230_VAILVDDMADTCGTICHAADK (UniProt P11908)	0.31	-0.412
PRKCD_Q05655_393_DVVLIDDDVECTMVEK (UniProt Q05655)	-0.33	0.0519
PRMT3_O60678_53_QQTPCLFCNR (UniProt O60678)	-0.0865	0.179
PRKDC_P78527_1399_VLVQTLCEPASIGFNIGDVQVMAHLPDVCVNLMK (UniProt P78527)	0.144	0.164
PRPF8_Q6P2Q9_2116_KFICISDLR (UniProt Q6P2Q9)	0.0139	0.129
PRPF4_O43172_299_DVNLASCAADGSVK (UniProt O43172)	-0.149	-0.0256
PRKDC_P78527_3187_CFFLSK (UniProt P78527)	-0.115	-0.189
PRKDC_P78527_90_FLCIFLEK (UniProt P78527)	-0.272	0.234
PRKDC_P78527_1127+1135_SLGTIQQCCDAIDHLCR (UniProt P78527)	0.0784	-0.0108
PRICKLE3_O43900_246_HHAECLRPR (UniProt O43900)	-0.147	-0.245
PRPF6_O94906_739_CPHSTPLWLLLSR (UniProt O94906)	0.0362	0.027
PRKCD_Q05655_127_VLMSVQYFLEDVDCK (UniProt Q05655)	-0.226	-0.31

Target	probe-labelled cysteine peptide fold change (10 µM)	probe-labelled cysteine peptide fold change (50 µM)
PRKDC_P78527_2093_HECMAPLTALVK (UniProt P78527)	-0.124	0.134
PRKCI_P41743_137_LYCANGHTFQAK (UniProt P41743)	-0.00179	0.0748
PRKDC_P78527_3281_TRDDWLVSWVQSYCR (UniProt P78527)	0.0898	0.297
PRKCB_P05771_143_CVMNVPSLCGTDHTER (UniProt P05771)	-0.00167	-0.0823
PRKCB_P05771_70+71_QGFQCQVCCFVVHK (UniProt P05771)	-0.397	-0.496
PRKDC_P78527_2435_VCLDIIYK (UniProt P78527)	0.095	0.101
PRMT7_Q9NVM4_368_QMRPVCDCQAHLLWNRPR (UniProt Q9NVM4)	0.19	-0.0386
PRMT7_Q9NVM4_366+368_QMRPVCDCQAHLLWNRPR (UniProt Q9NVM4)	0.0235	-0.133
PRKCI_P41743_108+117_DSELLIHVFPCVPERPGMPCPGEDK (UniProt P41743)	-0.144	-0.535
PRKDC_P78527_2469_ELLNPVVEFVSHPSTTCR (UniProt P78527)	0.0754	0.199
PRTN3_P24158_56+72_GNPGSHFCGGTLIHPSFVLTAAHCLR (UniProt P24158)	-0.204	-0.45
PRKDC_P78527_2093_DPTVHDDVLELEMDELNRHECMAPLTALVK (UniProt P78527)	-0.156	-0.199
PRKAB1_Q9Y478_223_DTGISCDPALLPEPNHVMLNHLYALSIK (UniProt Q9Y478)	-0.447	-0.409
PRMT3_O60678_67_LFTSAEETFSHCK (UniProt O60678)	0.049	0.0747
PRMT1_Q99873_360_GQLCELSCSTDYR (UniProt Q99873)	0.0589	-0.365
PRPF31_Q8WWY3_247_MPACNIMLLGAQR (UniProt Q8WWY3)	-0.0993	-0.0869
PRKAA1_Q13131_313+321_FECSEEEVLSCLYNR (UniProt Q13131)	-0.0579	-0.25
PRMT5_O14744_42_QGFDFLCMPVFHPR (UniProt O14744)	0.0447	-0.0675
PRKDC_P78527_373_GYGLFAGPCK (UniProt P78527)	-0.037	0.131

Another view of some results above.
Target | probe-labelled cysteine peptide fold change (10 µM) | probe-labelled cysteine peptide fold change (50 µM)
PRKAB1_Q9Y478_223_DTGISCDPALLPEPNHVMLNHLYALSIK (UniProt Q9Y478) | -0.447 | -0.409
PRPF31_Q8WWY3_247_MPACNIMLLGAQR (UniProt Q8WWY3) | -0.0993 | -0.0869
